From paper PMC5437023 come the findings set out here.

Protein sequences, listed by entry. Tags and fused reporters are not part of them.
UniProt P35639: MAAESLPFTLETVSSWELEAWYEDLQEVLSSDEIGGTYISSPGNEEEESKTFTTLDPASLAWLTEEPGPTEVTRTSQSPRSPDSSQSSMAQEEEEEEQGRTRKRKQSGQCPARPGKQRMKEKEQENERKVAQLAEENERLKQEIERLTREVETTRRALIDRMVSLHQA
UniProt O60260: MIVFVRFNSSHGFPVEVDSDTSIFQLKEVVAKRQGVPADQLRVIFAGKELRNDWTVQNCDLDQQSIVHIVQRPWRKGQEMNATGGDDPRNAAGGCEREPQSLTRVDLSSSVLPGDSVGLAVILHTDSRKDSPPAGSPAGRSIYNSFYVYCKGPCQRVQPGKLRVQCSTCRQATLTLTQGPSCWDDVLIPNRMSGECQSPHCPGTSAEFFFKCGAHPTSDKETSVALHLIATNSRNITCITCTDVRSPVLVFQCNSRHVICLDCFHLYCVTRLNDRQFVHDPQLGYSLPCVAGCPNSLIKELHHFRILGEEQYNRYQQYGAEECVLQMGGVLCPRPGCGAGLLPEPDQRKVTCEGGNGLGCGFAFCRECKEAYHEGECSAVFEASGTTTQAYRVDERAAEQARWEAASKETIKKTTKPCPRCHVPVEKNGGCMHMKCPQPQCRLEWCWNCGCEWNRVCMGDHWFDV
UniProt P35638: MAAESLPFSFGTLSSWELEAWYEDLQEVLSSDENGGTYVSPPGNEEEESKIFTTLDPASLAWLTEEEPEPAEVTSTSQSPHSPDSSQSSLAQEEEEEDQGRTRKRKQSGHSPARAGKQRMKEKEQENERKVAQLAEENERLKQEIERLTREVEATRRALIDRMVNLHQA

No constants are given. Whether binding was seen depends on the method and setting. In cells and extracts the contact can be indirect. Some binding calls cover weakened binding; strength is not graded here.

Test [1] concerns the target Myc-CHOP (pcDNA-Myc-CHOP, wild type) (UniProt P35639). As to the kind of experiment: co-IP; HL-1 cells cotransfected with pcDNA-Myc-CHOP and p3xFlag-Parkin; reciprocal pull-down with anti-Myc agarose, immunoblot with Parkin antibody; lysis buffer 50 mM Tris-HCl pH 7.4, 1% Triton X-100, 0.5% NP-40, 300 mM NaCl.
For test [2], the target named is Parkin, endogenous in SH-SY5Y cells (human (endogenous in SH-SY5Y)) (UniProt O60260). In words: co-IP; endogenous proteins; SH-SY5Y cells treated with 25 mM thapsigargin for 5 hrs, crosslinked with 0.4% PFA for 20 mins on ice, lysed in Co-IP buffer (20 mM Tris-HCl pH 8, 137 mM NaCl, 1% NP-40, 2 mM EDTA, 10% glycerol); pull-down with Parkin monoclonal antibody (IgG as control) and protein A/G magnetic beads, immunoblot with CHOP and Parkin antibody.

For test [3], the target named is 3xFlag-Parkin (WT-Parkin subcloned into p3xFlag) (UniProt O60260). In words: co-IP; HL-1 cells cotransfected with pcDNA-Myc-CHOP and p3xFlag-Parkin; immunoprecipitation with anti-Flag M2 agarose overnight at 4 °C, immunoblot with anti-CHOP; lysis buffer 50 mM Tris-HCl pH 7.4, 1% Triton X-100, 0.5% NP-40, 300 mM NaCl.

Take “3xFlag-Parkin (WT-Parkin subcloned into p3xFlag) (from UniProt O60260 1-465) (enzyme)”: the binding entry in test [1] is “binds”. For “CHOP, endogenous in SH-SY5Y cells (from UniProt P35638 1-169)”, the binding result in test [2] was “binds”. In the case of “Myc-CHOP (pcDNA-Myc-CHOP, wild type) (from UniProt P35639 1-168)”, the binding result in test [3] was “binds”.
